Reference: paper PMC3162020
Results are given in words; binding and its absence hold for the method and conditions named. Binding seen in cells or lysates may run through a third protein. Some binding calls cover weakened binding; strength is not graded here.

Amino acid sequences for entries named in this document (tags omitted). A change or cut given only in a name is not applied to a line headed by its entry. Chains listed by the source or under a name are the forms on record and can include a tag or linker.
UniProt Q01968: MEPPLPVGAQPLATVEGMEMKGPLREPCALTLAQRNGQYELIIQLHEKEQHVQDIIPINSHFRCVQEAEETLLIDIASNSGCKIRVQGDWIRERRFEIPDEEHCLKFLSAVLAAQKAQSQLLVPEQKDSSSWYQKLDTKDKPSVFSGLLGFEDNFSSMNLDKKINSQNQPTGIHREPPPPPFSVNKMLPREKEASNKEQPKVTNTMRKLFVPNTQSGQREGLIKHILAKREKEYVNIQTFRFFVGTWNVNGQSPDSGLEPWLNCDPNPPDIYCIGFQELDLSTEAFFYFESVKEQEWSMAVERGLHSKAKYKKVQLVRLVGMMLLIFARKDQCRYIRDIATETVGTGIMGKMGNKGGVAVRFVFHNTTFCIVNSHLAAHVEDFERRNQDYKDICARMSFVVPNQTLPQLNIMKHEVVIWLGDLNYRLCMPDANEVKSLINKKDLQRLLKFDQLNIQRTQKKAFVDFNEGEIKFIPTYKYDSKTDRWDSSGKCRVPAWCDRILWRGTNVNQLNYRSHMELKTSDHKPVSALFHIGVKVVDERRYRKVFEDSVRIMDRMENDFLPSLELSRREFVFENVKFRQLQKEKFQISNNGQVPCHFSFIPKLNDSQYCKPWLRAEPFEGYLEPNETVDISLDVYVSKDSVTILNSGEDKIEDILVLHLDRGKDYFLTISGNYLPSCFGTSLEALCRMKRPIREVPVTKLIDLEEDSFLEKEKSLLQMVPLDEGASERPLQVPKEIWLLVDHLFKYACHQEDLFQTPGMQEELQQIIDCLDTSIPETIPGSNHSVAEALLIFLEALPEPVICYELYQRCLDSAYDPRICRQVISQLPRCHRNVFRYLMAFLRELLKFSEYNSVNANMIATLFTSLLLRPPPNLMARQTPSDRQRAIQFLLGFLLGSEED
GFP tagged human OCRL1 (wild-type, isoform b = 893 amino acids) (Q01968, form named): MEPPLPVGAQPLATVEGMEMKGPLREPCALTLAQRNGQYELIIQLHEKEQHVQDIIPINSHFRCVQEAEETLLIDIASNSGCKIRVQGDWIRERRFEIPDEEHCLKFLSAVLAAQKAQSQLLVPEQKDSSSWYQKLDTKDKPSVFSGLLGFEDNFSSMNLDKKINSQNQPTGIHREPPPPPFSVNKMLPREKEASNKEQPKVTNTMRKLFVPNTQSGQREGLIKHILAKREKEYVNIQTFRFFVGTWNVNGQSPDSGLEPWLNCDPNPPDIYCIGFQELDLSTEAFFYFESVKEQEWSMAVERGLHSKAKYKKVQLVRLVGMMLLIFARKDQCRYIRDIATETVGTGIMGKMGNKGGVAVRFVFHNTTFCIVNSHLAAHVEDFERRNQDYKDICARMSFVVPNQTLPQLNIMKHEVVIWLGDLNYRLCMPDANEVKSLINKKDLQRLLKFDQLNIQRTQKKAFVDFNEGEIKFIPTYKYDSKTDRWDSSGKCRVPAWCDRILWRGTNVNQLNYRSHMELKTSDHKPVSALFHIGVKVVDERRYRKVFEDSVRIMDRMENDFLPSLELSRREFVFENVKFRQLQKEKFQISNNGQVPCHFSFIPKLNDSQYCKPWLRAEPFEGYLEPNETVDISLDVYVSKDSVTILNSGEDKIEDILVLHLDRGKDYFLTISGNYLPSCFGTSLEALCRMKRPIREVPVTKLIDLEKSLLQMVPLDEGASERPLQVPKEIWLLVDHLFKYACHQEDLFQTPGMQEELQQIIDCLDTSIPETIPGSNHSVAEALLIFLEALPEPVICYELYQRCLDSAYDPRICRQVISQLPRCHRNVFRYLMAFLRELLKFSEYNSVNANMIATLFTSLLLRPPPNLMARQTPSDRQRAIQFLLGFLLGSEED
UniProt O97758: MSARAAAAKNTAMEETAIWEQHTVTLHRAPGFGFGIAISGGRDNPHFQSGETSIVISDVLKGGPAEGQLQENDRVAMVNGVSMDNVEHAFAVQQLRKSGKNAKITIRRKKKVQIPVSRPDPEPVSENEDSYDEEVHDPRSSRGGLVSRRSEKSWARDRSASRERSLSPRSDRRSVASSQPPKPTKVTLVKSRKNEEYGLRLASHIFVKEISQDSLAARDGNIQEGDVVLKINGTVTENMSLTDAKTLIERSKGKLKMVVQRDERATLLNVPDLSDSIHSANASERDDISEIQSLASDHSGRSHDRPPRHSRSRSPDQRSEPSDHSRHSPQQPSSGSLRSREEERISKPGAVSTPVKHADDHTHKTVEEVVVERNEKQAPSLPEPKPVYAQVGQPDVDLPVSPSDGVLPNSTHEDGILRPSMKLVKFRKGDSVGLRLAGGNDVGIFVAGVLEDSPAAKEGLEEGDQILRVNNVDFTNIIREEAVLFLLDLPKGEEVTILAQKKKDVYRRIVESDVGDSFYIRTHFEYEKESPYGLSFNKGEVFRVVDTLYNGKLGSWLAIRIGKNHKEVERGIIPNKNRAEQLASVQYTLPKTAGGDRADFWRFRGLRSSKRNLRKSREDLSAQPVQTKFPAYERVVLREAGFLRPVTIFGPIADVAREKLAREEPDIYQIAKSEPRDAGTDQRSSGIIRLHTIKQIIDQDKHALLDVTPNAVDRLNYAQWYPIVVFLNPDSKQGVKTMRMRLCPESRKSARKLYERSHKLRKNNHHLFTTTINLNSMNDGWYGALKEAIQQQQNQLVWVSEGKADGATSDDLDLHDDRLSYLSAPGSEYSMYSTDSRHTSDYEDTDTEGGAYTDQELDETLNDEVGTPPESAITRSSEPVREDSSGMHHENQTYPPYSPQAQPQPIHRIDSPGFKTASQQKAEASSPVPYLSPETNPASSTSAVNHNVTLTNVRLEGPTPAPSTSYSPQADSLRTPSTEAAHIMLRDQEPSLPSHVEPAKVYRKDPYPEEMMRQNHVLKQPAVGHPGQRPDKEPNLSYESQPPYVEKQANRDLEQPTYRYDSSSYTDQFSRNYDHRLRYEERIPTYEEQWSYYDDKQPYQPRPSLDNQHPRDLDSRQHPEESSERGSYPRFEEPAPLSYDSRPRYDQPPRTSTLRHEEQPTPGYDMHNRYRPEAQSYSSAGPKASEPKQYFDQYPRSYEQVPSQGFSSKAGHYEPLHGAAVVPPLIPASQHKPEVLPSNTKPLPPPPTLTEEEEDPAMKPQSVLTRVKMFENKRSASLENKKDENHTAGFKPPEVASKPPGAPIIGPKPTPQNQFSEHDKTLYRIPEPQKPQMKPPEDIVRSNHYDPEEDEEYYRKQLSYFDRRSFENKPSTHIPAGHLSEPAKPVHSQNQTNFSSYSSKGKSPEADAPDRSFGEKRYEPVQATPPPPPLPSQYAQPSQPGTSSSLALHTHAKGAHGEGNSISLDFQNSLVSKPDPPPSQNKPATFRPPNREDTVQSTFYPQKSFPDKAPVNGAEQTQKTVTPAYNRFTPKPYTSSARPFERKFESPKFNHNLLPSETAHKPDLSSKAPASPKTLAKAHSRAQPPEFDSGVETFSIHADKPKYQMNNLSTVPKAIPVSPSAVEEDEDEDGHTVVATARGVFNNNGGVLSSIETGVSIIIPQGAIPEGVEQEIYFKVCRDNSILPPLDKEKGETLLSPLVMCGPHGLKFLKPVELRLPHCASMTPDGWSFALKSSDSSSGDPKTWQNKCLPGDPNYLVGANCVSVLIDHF
UniProt Q07157: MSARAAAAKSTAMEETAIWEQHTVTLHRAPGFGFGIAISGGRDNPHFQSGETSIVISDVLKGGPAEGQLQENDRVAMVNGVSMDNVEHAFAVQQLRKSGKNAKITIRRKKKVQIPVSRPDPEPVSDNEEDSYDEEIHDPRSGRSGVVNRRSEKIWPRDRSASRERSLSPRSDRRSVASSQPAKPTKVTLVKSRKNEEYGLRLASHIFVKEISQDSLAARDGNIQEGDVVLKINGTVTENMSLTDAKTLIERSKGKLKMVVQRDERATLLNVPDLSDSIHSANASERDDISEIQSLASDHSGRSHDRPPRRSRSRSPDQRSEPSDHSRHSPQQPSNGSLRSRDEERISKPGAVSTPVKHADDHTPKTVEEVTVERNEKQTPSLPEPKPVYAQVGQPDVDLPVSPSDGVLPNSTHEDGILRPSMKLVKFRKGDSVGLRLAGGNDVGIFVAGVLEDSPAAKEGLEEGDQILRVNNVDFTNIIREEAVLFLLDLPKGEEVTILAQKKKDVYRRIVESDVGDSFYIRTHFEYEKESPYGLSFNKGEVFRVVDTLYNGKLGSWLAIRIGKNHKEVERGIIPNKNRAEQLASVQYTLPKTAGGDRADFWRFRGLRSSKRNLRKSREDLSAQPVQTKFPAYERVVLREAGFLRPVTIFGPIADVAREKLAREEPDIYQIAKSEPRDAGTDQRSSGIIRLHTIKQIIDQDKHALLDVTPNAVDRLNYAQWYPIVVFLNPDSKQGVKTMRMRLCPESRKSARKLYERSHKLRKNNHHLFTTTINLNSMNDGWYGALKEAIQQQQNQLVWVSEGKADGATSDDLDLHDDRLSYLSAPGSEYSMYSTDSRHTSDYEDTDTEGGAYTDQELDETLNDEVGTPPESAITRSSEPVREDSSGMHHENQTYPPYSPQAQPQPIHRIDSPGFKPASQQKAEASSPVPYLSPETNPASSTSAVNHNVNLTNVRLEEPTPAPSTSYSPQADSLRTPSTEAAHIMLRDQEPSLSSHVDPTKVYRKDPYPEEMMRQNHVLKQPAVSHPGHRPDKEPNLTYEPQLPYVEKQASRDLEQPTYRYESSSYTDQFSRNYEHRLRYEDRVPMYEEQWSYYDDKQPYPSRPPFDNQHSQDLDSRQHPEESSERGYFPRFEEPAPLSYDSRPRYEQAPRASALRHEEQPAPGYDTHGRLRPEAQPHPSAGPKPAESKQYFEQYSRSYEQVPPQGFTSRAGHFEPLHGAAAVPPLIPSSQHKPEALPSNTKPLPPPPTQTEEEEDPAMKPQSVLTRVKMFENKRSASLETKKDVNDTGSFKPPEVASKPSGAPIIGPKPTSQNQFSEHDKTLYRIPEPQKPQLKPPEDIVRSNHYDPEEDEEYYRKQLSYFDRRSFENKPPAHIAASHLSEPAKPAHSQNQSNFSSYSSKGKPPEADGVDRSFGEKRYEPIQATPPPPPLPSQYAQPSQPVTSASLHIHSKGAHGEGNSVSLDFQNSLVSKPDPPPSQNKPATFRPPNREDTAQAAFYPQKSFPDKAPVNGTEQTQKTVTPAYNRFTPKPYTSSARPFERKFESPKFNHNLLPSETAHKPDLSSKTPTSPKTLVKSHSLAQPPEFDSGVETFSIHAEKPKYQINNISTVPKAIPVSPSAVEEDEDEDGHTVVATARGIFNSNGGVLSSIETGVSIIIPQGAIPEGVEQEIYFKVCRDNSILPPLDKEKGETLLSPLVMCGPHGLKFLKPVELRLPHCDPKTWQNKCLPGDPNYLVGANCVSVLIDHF

B1: Zonula occludens-2 (ZO-2), endogenous in MDCK cells (protein, UniProt Q95168 1-1174)
chain: MEELIWEQYTVTLQKDSKRGFGIAVSGGRDNPHFENGETSIVISDVLPGGPADGLLQENDRVVMVNGTPMEDVLHSFAVQQLRKSGKIAAIVVKRPRKVQLAPPQGSLPVDEDDRAFEVMDEFDGRSARSGYSERSRRSSHGGRSRSWEDSPERGRPHERAWSQERERSRGRSLERGLDHDDDYRRPRERSRGRSLERGLDHDDDYGRPGERSHGMSTDRGYDRGYDRGYDRGYDRTYSPEAEYGRRTQPDARHAGSRSRSREHLRSRSPSPELRGRPDHAGQPDSDRPIGVLLMKSKANEEYGLRLGSQIFIKQMTRTALATKDGNLHEGDIILKINGTVTENMSLTDARKLIEKSRGKLQLVVLRDSKQTLINIPSLNDSDSEIEDISEIESNRSFSPEERRQQYSDYDYHSSNEKLKERPNSREDMQNRWSRMGATPTPFKSMGDIASVVGTENSKEPRYQEEPPAPQPKAAPRTFLRPSPEDEAIYGPNTKMVRFKKGDSVGLRLAGGNDVGIFVAGIQEGTSAEQEGLQEGDQILKVNTQDFRGLVREDAVLYLLEIPKGEMVTILAQSRADVYRDILACGRGDSFFIRSHFECEKETPQSLAFSRGEVFRVVDTLYDGKLGHWLAVRIGNELEKGLIPNKSRAEQMASVQNAQRDNAGDRADFWRMRGQRSGMKKNLRKSREDLTAAVSVSTKFPAYERVLLREAGFKRPVVLFGPIADIALEKLANELPDLFQTAKTEPKDAGSEKSSGVVRLNTVRQIIEQDKHALLDVTPKAVDLLNYTQWFPIVIFFNPDSRQGVKTMRQRLNPTSNKSSRKLYDQANKLKKTCAHLFTATINLNSANDSWFGSLKDTIQHQQGEAVWVSEGKMEGMDDDPEDRMSYLTAMGADYLSCDSRLISDFEDTDGEGGAYTDNELDEPAEEPLVSSITRSSEPVQHEESIRKPSPEPRAQMRRAASRDQLRDSSPPPAFKPEPPKAKTQNREESFDISRSHDYKSNPSAVAGNEVSGASTRSCPPPIAAKPSFGRSILKPSTPVPSPESEEVGEGSEEQEGAPKSVLGKVKIFEKMDHKARLQRMQELQEAQNARIEIAQKHPDIYAVPIKTHKPDPGLSQHTSSRPPEPQKGPSRLYQDPRGSYGSDAEEEEYRQQLSEHSKRGYYSQPSRYRDTEL
B2: Zonula occludens-3 (ZO-3), endogenous in MDCK cells (protein, UniProt O62683 1-898)
chain: MEELTIWEQHTATLCRDPRRGFGIAISGGRDRASGSVVVSDVVPGGPADGRLQTGDHVVMVNGVSMESVTSTFAIQILKTCTKLANITVKRPRKIQLPATKAGTSGRGRQGLEEEADCGQGYDGDTSSGSGRSWDKRSRRARTGRRNQAGSRGRRSPGGNSEANGLALVSGFKRLPRQDVHMRPVKSVLVRRTESEEFGVTLGSQIFIKHITDSGLAARNRGLQEGDLILQINGVSSENLSLSDTRRLIEKSEGKLTLLVLRDRGQFLVNIPPAVSDSDSDSSFLDDISALGSELSQAVPSHVPPPPPHAQRSLDSDGTDSPRDSPPLRRENSLDSRTISEPDAPRHSSYDIYRVPSSQSAEDRGYSPDSRVVRFHKGTTIGLRLAGGNDVGIFVSGVQEGSPADGQGIQEGDQILQVNDVPFRNLTREEAVQFLVALPPGEEVELVTQRNEDIFRKMVQSRVGDSFYIRTHFELEASPPSGLGFTRGDVFHVLDTLCPGPGPSGARGTHWLAVRMGRDLREQERGIIPNQSRAEQLASLESAQRAVGAGPGASVGSSARAEFWRLRGLRRGAKKSTQRSREDLSALTRQGHYPPYERVVLREASFKRPVVILGPVADIAMQKLTAEMPDQFGIADSVLRTDSPSKIIKLDTVRVIAEKNKHALLDVTPSAVERLNYVQYYPIVVFCAPESRAALKALRQWLAPASRRSARRLYAQAQKLRKHSEHLFTATIPLRGTSDTWYQELKAVVREQQTRPIWTAEDQLDNSSEDNLELPHRGLADSSADLSCDSRVNSDYETDGEGYTDGEGYTDVDEGPPAPALARSSEPVLEEEPRSPRDHGRASGARGAQVDRHPYHSQGRQDSMRTYGQEALKKKFTRARDVESSDEDGYDWGPATDL

Experiments:
[1] = target: GFP tagged human OCRL1 (wild-type, isoform b = 893 amino acids) (human) (UniProt Q01968); assay: co-IP; GFP precipitated from Caco-2 cells transiently transfected with GFP-OCRL1; control rabbit immunoglobulin; immunoblot for ZO-1
[2] = target: OCRL1, endogenous in Caco-2 cells (human (endogenous in Caco-2)) (UniProt Q01968); assay: co-IP; antibodies to OCRL1, pre-cleared Caco-2 cell lysate; control normal sheep immunoglobulin; blot for ZO-1
[3] = target: Zonula occludens-1 (ZO-1), endogenous in MDCK cells (dog (endogenous in MDCK)) (UniProt O97758); assay: co-IP; antibodies to ZO-1 on Protein G beads, pre-cleared MDCK cell lysates; control rabbit Ig; lysis buffer 10 mM HEPES, 142.5 mM KCl, 0.2% NP-40, pH 7.4; 4°C for two hours; blots for ZO-1/2/3 or OCRL1

Molecule	binding [1]	binding [2]	binding [3]
Zonula occludens-1 (ZO-1), endogenous in Caco-2 cells (from UniProt Q07157 1-1748)	binds	binds	
B1			binds
B2			binds
